Results deposited as PubChem BioAssay AID743454 (Peter MacCallum Cancer Centre, 2014)
The whole screen tested about 18,000 reagents; below is a part drawn at random. 450 of all reagents (2.5%) count as active. 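Single biological run; no consistent viability z cut-off exists, so the class columns, not z-scores, define the calls.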 A number with no mark means an inactive call.

Screen: 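Search for knock-downs that restore vorinostat killing in resistant colon cancer cells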 (primary screen)
System: human HCT116-VR colon cancer cells, selected for vorinostat resistance
Reagents: siRNA pool against human genes, 40 nM siRNA pool
Duration: vorinostat for 24 h, read-out about 72 h after transfection
Treatment: vorinostat at 2.5 µM final
Measured: 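Cell viability by CellTiter-Fluor and caspase 3/7 activity by luminescence, each scaled to mock wells per plate, duplicates averaged, then robust z-scored over all plates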
Reading the numbers: viability robust z-score: higher = more viable cells than screen typical; caspase robust z-score: higher = more caspase 3/7 activity than screen typical
Call rule: 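a knock-down is a hit when classed RV1 or RV2 for lowered viability, or CA1 or CA2 for caspase activation; those lethal without drug were dropped; hits were retested singly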

| Target gene | viability hit class | caspase hit class | viability robust z-score | caspase robust z-score |
| --- | --- | --- | --- | --- |
| EIF2AK4 | no change | no change | -1.01 | 3.55 |
| ZDHHC5 | no change | no change | -0.32 | 0.31 |
| SEMA6C | no change | no change | 0.4 | -0.44 |
| SLC11A2 | no change | no change | 0.62 | 1.84 |
| PIGZ | no change | no change | -1.1 | 2.64 |
| CCT8L1P | no change | no change | 0.63 | -0.46 |
| EIF2B5 | RV2 (reduced viability) (active) | no change | -3.2 | -0.56 |
| OR8D4 | no change | no change | -0.96 | 2.51 |
| LXN | no change | no change | -1.35 | -0.14 |
| CKMT1B | no change | no change | 0.37 | -0.86 |
| KCTD7 | no change | no change | 0.28 | -0.56 |
| TOPORS | no change | no change | 0.08 | 0.18 |
| CFL1 | no change | no change | -1.92 | 2.33 |
| CCR8 | no change | no change | 0.34 | -0.55 |
| OAS3 | no change | no change | 1.02 | -0.51 |
| NMT1 | no change | no change | 0.42 | 1.92 |
| RPL5 | no change | no change | -3.29 | -1.12 |
| ZNF107 | no change | no change | -1.73 | 1.11 |
| SLC39A2 | no change | no change | -0.99 | 0.9 |
| GRIK4 | no change | no change | -2.85 | 4.47 |
| ST8SIA1 | no change | no change | -1.44 | -0.72 |
| KRT25 | no change | no change | -1.39 | -0.9 |
| OPRD1 | no change | no change | 0.06 | 1.5 |
| PSMD8 | no change | no change | -4.75 | 0.32 |
| IGBP1 | no change | no change | -0.16 | 0.42 |
| POLD1 | no change | no change | -0.17 | 0.97 |
| DMWD | no change | no change | 0.21 | 0.28 |
| LRRC75B | no change | no change | 2.29 | 0.96 |
| CD300LB | no change | no change | 1.45 | 1.25 |
| DBX2 | no change | no change | 1.45 | 0.4 |

An excerpt from the list above, as a working copy:
| Target gene | viability hit class | caspase hit class | viability robust z-score | caspase robust z-score |
| --- | --- | --- | --- | --- |
| NMT1 | no change | no change | 0.42 | 1.92 |
| RPL5 | no change | no change | -3.29 | -1.12 |
| ZNF107 | no change | no change | -1.73 | 1.11 |
| SLC39A2 | no change | no change | -0.99 | 0.9 |
| GRIK4 | no change | no change | -2.85 | 4.47 |
| ST8SIA1 | no change | no change | -1.44 | -0.72 |
| KRT25 | no change | no change | -1.39 | -0.9 |
| OPRD1 | no change | no change | 0.06 | 1.5 |
| PSMD8 | no change | no change | -4.75 | 0.32 |

Additional entries follow.
| Target gene | viability hit class | caspase hit class | viability robust z-score | caspase robust z-score |
| --- | --- | --- | --- | --- |
| PIP5K1B | no change | no change | 0.23 | -0.19 |
| SAMD1 | no change | no change | 0.35 | -0.52 |
| NT5C1B | no change | no change | 0.05 | -0.44 |
| APOL4 | no change | no change | -0.79 | 0.02 |
| GMIP | no change | no change | -0.86 | 3 |
| PCDHGA4 | no change | no change | 0.65 | -0.53 |
| FAM133A | no change | no change | 0.21 | -1.02 |
| PIM3 | no change | no change | 0.27 | -0.12 |
| NAT2 | no change | no change | 0.72 | -0.09 |
| EHD1 | no change | no change | -0.9 | 0.22 |
| SCML4 | no change | no change | 0.32 | -0.6 |
| TRIM46 | no change | no change | -2.06 | 3.62 |
| IFNA2 | no change | no change | -0.34 | -0.75 |
| TRIP4 | no change | no change | -0.22 | -0.96 |
| PDXP | no change | no change | 0.22 | 1.28 |
| RAG1 | no change | no change | -0.03 | 1.92 |
| WDR19 | no change | no change | 1.14 | -0.74 |
| ZNF333 | no change | no change | 0.36 | -0.26 |
| UTP14A | no change | no change | -2.24 | 0.18 |
| ZNF595 | no change | no change | -0.62 | -0.6 |
| MEMO1 | no change | no change | -0.52 | -0.53 |
| LHFPL4 | no change | no change | 2.29 | -0.24 |
| BTBD1 | no change | no change | -1.77 | -1.27 |
| CNRIP1 | no change | no change | 1.42 | 0.88 |
| OR51M1 | no change | no change | -0.38 | 0.73 |
| SRPRB | no change | no change | 0.43 | 0.12 |
| EFHC2 | no change | no change | -0.24 | 0.92 |
| CHRDL1 | no change | no change | -1.95 | -1.23 |
| TSTD2 | no change | no change | -0.44 | -0.68 |
| ZZZ3 | no change | no change | -1.58 | -0.08 |
| SSX4B | no change | no change | -0.36 | -0.68 |
| TDP2 | no change (active) | CA1 (caspase activation) | 0.46 | 7.67 |
| CYP27C1 | no change | no change | -0.1 | 2.2 |
| YEATS2 | no change | no change | 0.26 | 0.22 |
| NOX4 | no change | no change | -0.5 | 1.48 |
| CORO2B | no change | no change | -0.36 | 0.36 |
| KRT14 | no change | no change | -0.75 | 0.8 |
| IGF2BP3 | no change | no change | -1.21 | 0.08 |
| CD27 | no change | no change | 0.04 | 0.34 |
| NPM1 | no change | no change | 0.2 | -0.76 |
| RFPL4B | no change | no change | 0.68 | -0.61 |
| WASF2 | no change | no change | 0.08 | -0.22 |
| CDC37 | no change | no change | 0.36 | -0.62 |
